Test results as given in PubChem BioAssay AID651804 (National Center for Advancing Translational Sciences (NCATS), 2012).
Hit rate of the full screen: of about 1,200 compounds, about 20 (2%) were called active. Inconclusive results (about 23%) are left out. Calls come from the whole dose curve; as a rule, active = well fitted inhibition curve with a large enough effect; inconclusive = small, poorly fitted or top-dose-only effect; inactive = no such curve, though single readings can be large or run the other way. The list shows a part of the results.

Protein sequences, listed by entry. Tags and fused reporters are not part of them. Lines headed by an entry give the natural chain unless they say otherwise; changes in a name come on top.
UniProt P11308: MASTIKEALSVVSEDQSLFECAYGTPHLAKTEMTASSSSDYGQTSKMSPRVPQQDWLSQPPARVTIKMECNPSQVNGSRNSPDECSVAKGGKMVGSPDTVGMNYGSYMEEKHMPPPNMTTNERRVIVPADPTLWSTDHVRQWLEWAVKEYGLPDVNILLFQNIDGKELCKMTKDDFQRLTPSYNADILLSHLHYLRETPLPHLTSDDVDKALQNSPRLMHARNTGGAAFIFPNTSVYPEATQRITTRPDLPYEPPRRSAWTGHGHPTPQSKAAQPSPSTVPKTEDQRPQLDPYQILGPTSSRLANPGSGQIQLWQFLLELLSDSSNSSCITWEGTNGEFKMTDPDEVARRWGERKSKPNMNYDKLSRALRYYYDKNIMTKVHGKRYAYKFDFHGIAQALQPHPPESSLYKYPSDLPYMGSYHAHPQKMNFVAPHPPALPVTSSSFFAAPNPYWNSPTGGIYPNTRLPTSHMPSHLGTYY

These molecules were tested against Transcriptional regulator ERG (Homo sapiens) (UniProt P11308) (assay: qHTS for Small Molecule Inhibitors of the ERG Ets/DNA interaction: HTRF assay against cherry picks). Details: His-ERG Ets domain with biotin-DNA; series mostly up to 154 µM; activity change, negative = inhibition: at the top concentration.
Description: The Ets family of proteins is a family of ~30 conserved transcription factors defined by the presence of an ~85 amino acid domain referred to as the Ets domain, which mediates sequence-specific DNA binding to a core DNA element GGAA/T.The Ets family member ERG has been linked to several neoplasms. […] More extensive studies of the effects of over-expression of ERG in prostate cells have recently been carried out and have shown that over-expression of ERG results in increased invasion. […] We will carry out a high throughout screen to identify inhibitors of the interaction between ERG and DNA using a fluorescence polarization (FP) assay with a His-tagged ERG Ets domain and fluorescently-labeled DNA probes to develop small molecule inhibitors of this interaction as probes to test this hypothesis and lay the groundwork for the development of targeted therapies against ERG. This is the counterscreen against the cherry picks. NIH Molecular Libraries Probe Production Network [MLPCN] NIH Chemical Genomics Center [NCGC] Grant: NS066464 PI Name: John Bushweller, University of Virgina
2 ul of protein solution (200 nM ERG domain in 300mM KCl, 50mM Tris-HCl, 1mM EDTA, 1mM DTT, pH 7.5); 20 nl Control plate and compound library plate; 2 ul of 200 nM biotin-DNA; incubate for 10 min at RT; 1 ul of anti-His antibody conjugated to the long-life fluorescent cryptate donner […] (5ng/ul) and streptavidin conjugated to the acceptor compound […] (0.2 ng/ul) mix; incubate 10 min and measure FRET (Excitation = 320 nm, Emission = 615, 665 nm).

Activity change, negative = inhibition, inactive:
COC(=O)c1ccc(NC(=S)N2CCN(C(=O)c3ccco3)CC2)cc1 -2.23%
COCCNC(=O)Cn1c(=O)n(CCCC(=O)NCc2ccc3c(c2)OCO3)c(=O)c2sccc21 -28.9%
CC(=O)c1cccc(S(=O)(=O)N2CCC(c3nc4ccccc4[nH]3)CC2)c1 -27.3%
COc1cc2nc(N3CCN(C(=O)[C@@H]4CCCO4)CC3)nc(N)c2cc1OC -25.1%
COc1ccc(C(=O)N2CCCC(CCC(=O)NCc3ccccc3F)C2)c(OC)n1 (stereo unspecified) -5.94%
CCOC(=O)c1ccccc1NC(=O)COC(=O)C(Cc1c[nH]c2ccccc12)NC(C)=O (stereo unspecified) -32.6%
CCN(CC)c1cccc(OC2=NS(=O)(=O)c3ccccc32)c1 -23%
CCCc1nc2oc3c(OC)ncnc3c2c2c1COC(C)(C)C2 -0.955%
CCN1CCN(C(=O)C(=O)c2cn(CC(=O)N3CCCCCC3)c3ccccc23)CC1 -17.8%
O=C(NCC1CCN(S(=O)(=O)c2ccccc2)CC1)Nc1ccc(F)cc1 -20.5%
CC1(C)C[C@@H]1C(=O)N/C(=C\CCCCSC[C@H](N)C(=O)O)C(=O)O -9.87%
Cc1ccc(C(=O)N2CCCCC2C(=O)O)cc1S(=O)(=O)N1CCCCC1 (stereo unspecified) -26.3%
NC(=O)c1ccccc1NCC(=O)c1ccc(F)cc1 -21.6%
Cc1ccc(N(CCCCN2C(=O)c3ccccc3C2=O)C(=O)c2ccc(Cl)s2)cc1 -1.7%
COC(=O)/C(=C/Nc1ccc(O)cc1)[N+](=O)[O-] -20.5%
Cc1ccccc1OCC(=O)OCC(=O)NCCc1ccccc1 12.7%
CCN(CC(=O)Nc1ccccc1C(F)(F)F)C(=O)c1ccc(N2C(=O)CCC2=O)cc1 -29.6%
CN(C)S(=O)(=O)c1ccc(C(=O)N(c2ccccn2)c2ccccn2)cc1 -5.2%
COc1ccc(N=c2scc(C)n2CCCN2CCCC2=O)cc1 -25.8%
Nc1ccc(C(=O)O)cc1 4.56%
Nc1cc(C(=O)OCC(=O)NCCCc2ccccc2)ccc1Cl -7.69%
O=C(Nc1ccc(F)cc1F)NC1CC1 -25.6%
O=C(Nc1ccccc1-c1ccccc1)C1CCCCC1 -21.9%
Cn1cc2c(=O)n(/N=C/c3ccccc3)cnc2n1 -15.9%
COc1c2c(c(CCC(=O)O)c3c1C=CC(C)(C)O3)OC(C)(C)C=C2 -24.5%
Cc1ccc(C(=C2C3C=CC2C2C(=O)NC(=O)C32)c2ccc(C)cc2)cc1 (stereo unspecified) -22.2%
O=C(Nc1ccc(-n2cnnn2)cc1)C1CCCCC1 -24.8%
O=C(NC1CCN(S(=O)(=O)c2ccccc2C(F)(F)F)CC1)c1ccco1 -16.3%
CCOCC(=O)N1CCC(Cc2ccccc2)CC1 -7.11%
CCOC(=O)C1=C(C)c2ccccc2N(S(=O)(=O)C(F)(F)F)C1C(=O)OCC (stereo unspecified) -0.53%
COc1ccc(C2CC(=O)C(C=NCCN3CCN(C(=S)Nc4ccccc4)CC3)=C(O)C2)cc1 (stereo unspecified) -9.92%
O=C(COC(=O)/C=C/c1ccc([N+](=O)[O-])cc1)NCc1cccs1 -28.9%
COc1ccc(CC(=O)OCC(=O)Nc2cccnc2Cl)cc1OC 6.58%
Oc1c(Cl)cc(Oc2cc(Cl)c(O)c(CN3CCOCC3)c2)cc1CN1CCOCC1 -24.7%
COc1ccc(-n2cnc3cc(C(=O)NC4CCCC4)ccc32)cc1 -14.5%
Nc1nnc(-c2ccccc2F)s1 -31.9%
Cc1cccc(C(=O)Nc2ccc(C(=O)N3CCCCC3C)cc2)c1 (stereo unspecified) -26.7%
CCOC(=O)C(NC(=O)CC(C)C)(Nc1sc2c(c1C(N)=O)CCCC2)C(F)(F)F (stereo unspecified) -21.5%
CC(=O)c1ccc(OCc2ccc(Oc3c(Cl)cccc3[N+](=O)[O-])cc2)cc1 -23.2%
CCOC(=O)c1c(C)n(CCOc2ccccc2)c2ccc(O)cc12 -27.4%
CCc1ccccc1NC(=O)c1nnn(-c2ccc(F)cc2)c1C -7.69%
CCCCOc1ccc(C(=O)NCCC(=O)NCCCC(=O)OCC)cc1 4.35%
Cc1ccc(N(CC(=O)NCc2ccccc2)C(=O)CCC(=O)Nc2nccs2)cc1 -6.9%
Cc1ccc2oc(-c3ccc(NC(=O)CC(C)C)cc3)nc2c1 -28%
COC(=O)CSc1nnc(CNC(=O)c2ccc(S(=O)(=O)N3CCOCC3)cc2)n1C -23.6%
Cc1ccc(NC(=O)CSc2nc3ccccc3c3nc(CCn4c(C)nc5ccccc54)nn23)cc1F -14.4%
CCOC(=O)C1CN(S(=O)(=O)c2cc(OC)ccc2OC)C1 -25.9%
CC1Cc2ccccc2N1CC(=O)Nc1ccc2c(c1)OCO2 (stereo unspecified) -23.4%
CC(C)CN1CCc2nc(Nc3ccc(F)cc3F)ncc2C1 -26%
COc1cc(NC(=O)c2noc(C)c2[N+](=O)[O-])c(OC)cc1Cl -37.2%
Cc1cc(C)c(NC(=O)Cn2c(=O)n(CCC(=O)N3CCc4ccccc4C3)c(=O)c3ccccc32)c(C)c1 -12.5%
CCOc1ccc(N(CC(=O)NCCc2ccc(Cl)cc2)S(=O)(=O)c2c(C)[nH]c(=O)[nH]c2=O)cc1 -19%
CCOC(=O)c1c(NC(=O)CN2C(=O)NC3(CCC(C)CC3)C2=O)sc(C)c1-c1ccc(C)cc1 (stereo unspecified) -10.5%
CC1(C)C(=O)NCCN1C(=O)c1ccc2nc(Cc3ccccc3F)oc2c1 -29.1%
COc1ccc(-n2nc(C(=O)NCC(=O)Nc3cc(OC)ccc3OC)c3ccccc3c2=O)cc1 -15.6%
CCCN(CCC)Cc1c(C(=O)N/N=C/c2cccs2)nnn1-c1nonc1N -26.5%
CCCCC1=NN(C(=O)c2ccco2)C(O)(C(F)(F)F)C1 (stereo unspecified) -8.75%
CC1(C)C2CCC1(CS(=O)(=O)N1CCC(C(N)=O)CC1)C(=O)C2 (stereo unspecified) 3.34%
COc1ccc(-c2nn3c(=O)cc(CN4CCN(C(=O)/C=C/c5ccccc5)CC4)nc3s2)cc1 -10.7%
O=S(=O)(NCCNS(=O)(=O)c1ccc(F)cc1)c1ccc(F)cc1 -20.7%
O=C(COC(=O)c1cccc(-n2cnnn2)c1)c1ccccc1 -11.8%
COC(=O)c1ccc(C2=NOC(C)(c3sc(-c4ccccc4)nc3C)C2)cc1 (stereo unspecified) -3.45%
COc1ccccc1C(=O)Nn1c(-c2cccs2)nc2ccccc2c1=O -15%
COc1cc(CCC(=O)Nc2ccc(Br)c(C(F)(F)F)c2)cc(OC)c1OC -23.7%
O=C(CN1C(=O)NC2(CCCC2)C1=O)NNC(=O)c1ccc(Cl)cc1 -28.5%
Cc1cc(C)nc(N2C(=O)CC(Cc3ccc(Cl)cc3)C2=O)n1 (stereo unspecified) -18.5%
O=c1o[nH]c(-c2ccccc2)c1-c1ccccc1 -14.2%
O=C(Oc1ccc(Br)cc1)c1n[nH]c(=O)c2ccccc12 -33.9%
Nn1c(Cc2ccccc2)nc2sc3c(c2c1=O)CCC3 -18.9%
COc1ccc(S(=O)(=O)N2CC(C)OC(C)C2)cc1C(=O)N1CCCCC1 (stereo unspecified) -1.64%
O=c1[nH]cc(S(=O)(=O)Nc2ccc3c(c2)OCO3)c(=O)[nH]1 -20.2%
Cc1cc(/C=C2\C(=N)N3N=C(C(C)C)SC3=NC2=O)c(C)n1-c1ccccc1 -18.1%
CCc1ccccc1NC(=O)CSc1nnc(COc2ccccc2Cl)o1 7.59%
COc1ccc(Oc2ccc(N/C=C3\CCCC3=O)cc2)cc1 -20.3%
COC(=O)c1ccsc1NC(=O)c1cccc(OC)c1 28.2%
CC(=O)c1cc(-c2ccccc2)n(CCC(=O)NC(C)(C)C)c1C -23.8%
Cc1ccc(C)c(NC(=S)/C(=C(\[O-])c2ccc(OC(F)F)cc2)[n+]2ccccc2)c1 -29%
CCOC(=O)C1CCC(CN(Cc2ccccc2C)S(=O)(=O)c2ccc([N+](=O)[O-])cc2)CC1 (stereo unspecified) -0.743%
Cc1ccc(NS(=O)(=O)c2ccc(CCC(=O)NCCCOC(C)C)cc2)cc1 -6.37%
C[N+]1(C)C2CC(OC(=O)C(CO)c3ccccc3)CC1C1OC12 (stereo unspecified) -0.584%
CN(C(=O)COC(=O)c1ccc(F)c(S(=O)(=O)N2CCOCC2)c1)C1CCS(=O)(=O)C1 (stereo unspecified) -15.2%
CCOC(=O)c1sc(NC(=O)c2c(-c3ccccc3)c(-c3ccccc3)nn(C)c2=O)nc1C -14.1%
Cc1ccc2c(COC(=O)c3ccccc3Br)cc(=O)oc2c1 -8.54%
Cc1cc(C)cc(NC(=O)CCOc2ccccc2)c1 -18.5%
COc1ccc(CCn2c(C)cc(C(=O)COC(=O)c3cnc(C)cn3)c2C)cc1 -5.2%
CC(C)CN1C2CCCC1CC(NC(=S)NCc1ccco1)C2 (stereo unspecified) -25.1%
COc1ccc(NC(=O)C2CCN(C(=O)C3CC(=O)N(c4ccc(C)cc4)C3)CC2)cc1 (stereo unspecified) 0.743%
CNCC(O)CN1CCN(c2ccccc2OC)CC1 (stereo unspecified) -19.5%
CCOC(=O)C(CC)Sc1ccc2nnc(-c3cccnc3)n2n1 (stereo unspecified) -10.8%
COc1ccc2cc(CO)c(Cl)nc2c1 -30.9%
CCOc1ccc(NC(=O)CSc2nc(-c3cccs3)cc(C(F)(F)F)c2C#N)cc1 17.9%
Cc1ccc(NC(=O)C2CC(O)CN2C(=O)OCc2ccccc2)c(C)c1 (stereo unspecified) 1.01%
Cc1ccc(NCC(=O)N/N=C/c2c[nH]c3ccccc23)cc1 -20.4%
CCOC(=O)CSc1nncc2ccc(OC)c(OC)c12 -31%
Oc1ccc(NCc2cccs2)cc1 -30%
COc1ccccc1CNC(=O)CCNC(=O)C1CCN(S(=O)(=O)c2ccccc2)CC1 -23.7%
CC(C)n1c(SCc2ccccc2F)nc2c1c(=O)n(C)c(=O)n2C -19.2%
Cc1c(NC(=O)c2cc(-n3cnnc3)ccc2Cl)cccc1-c1nc2ccccc2s1 -29.4%
Cc1ccc(C)c(NC(=O)COC(=O)c2ccc[n+]([O-])c2)c1 2.55%
COc1cc(C(=O)Nc2ccc(S(=O)(=O)Nc3cc(C)nc(C)n3)cc2)cc(OC)c1OC -10.3%
Cc1cc(C[n+]2ncsc2N)c2ncccc2c1 -26.6%
Cc1nonc1C1CCCN1C(=O)c1cc(COc2ccc(F)cc2Cl)on1 (stereo unspecified) -30.1%
O=S(=O)(c1ccc(Cl)cc1)N1CCN(CCc2ccccc2)CC1 -26.1%
Cc1cc(F)ccc1NC(=O)c1ccc(NS(=O)(=O)c2cc(C(C)(C)C)ccc2C)cc1 -11.9%
COc1cc(CNCC2CCCO2)ccc1OCC(N)=O (stereo unspecified) -3.61%
COC(=O)C(CSCc1ccccc1)NC(=O)CSc1nc(N)cc(=O)[nH]1 (stereo unspecified) -28.6%

Three entries picked at random from the list so far:
Activity change, negative = inhibition, inactive:
CCc1ccccc1NC(=O)CSc1nnc(COc2ccccc2Cl)o1 7.59%
CCOC(=O)C1=C(C)c2ccccc2N(S(=O)(=O)C(F)(F)F)C1C(=O)OCC (stereo unspecified) -0.53%
COc1ccc2cc(CO)c(Cl)nc2c1 -30.9%

Among those listed so far, these contain a tert-butyl group:
Activity change, negative = inhibition, inactive:
CC(=O)c1cc(-c2ccccc2)n(CCC(=O)NC(C)(C)C)c1C -23.8%
Cc1cc(F)ccc1NC(=O)c1ccc(NS(=O)(=O)c2cc(C(C)(C)C)ccc2C)cc1 -11.9%
